Experimental data as given in PubChem BioAssay AID1439 (NMMLSC, 2008).
In all, about 220,000 compounds went through this assay and about 770 (0.35%) were called active. Inconclusive means that the source gave no clear call. Such entries were picked first, then a sample of the others. Rule as the data show it: active = binding response below about 49% or above about 150%; inconclusive = no clear call, values can overlap the other calls; inactive = in between.

The chains behind the UniProt entries cited, without tags or fusion partners.
UniProt P09471, whole entry, looked up: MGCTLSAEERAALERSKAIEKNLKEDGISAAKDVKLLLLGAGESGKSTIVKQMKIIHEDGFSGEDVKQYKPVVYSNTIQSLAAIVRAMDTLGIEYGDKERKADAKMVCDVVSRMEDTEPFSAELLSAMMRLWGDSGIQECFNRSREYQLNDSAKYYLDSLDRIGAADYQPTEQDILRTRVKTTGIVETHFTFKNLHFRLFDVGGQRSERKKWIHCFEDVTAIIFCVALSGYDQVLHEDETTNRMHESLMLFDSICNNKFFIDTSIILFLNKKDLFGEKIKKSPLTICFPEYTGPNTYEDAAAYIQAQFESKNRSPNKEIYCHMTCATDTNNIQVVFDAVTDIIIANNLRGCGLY

The molecules below were run against Guanine nucleotide-binding protein G(o) subunit alpha (Homo sapiens) (UniProt P09471) (assay: RGS7-Galphao binding modulators, primary screen, biochemical, multiplexed bead flow cytometry (AID 1439;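 also: fluorescent Galphao held in activated GDP-AlF4 state binding bead-coupled RGS7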)). Settings: at 10 µM, actives lie on both sides.
For `COCCNC(=O)NC(=O)COC(=O)c1ccc2[nH]c3c(c2c1)CCCC3`, the binding response (% of control) was inconclusive: 107%. In the case of `Cc1nc(N2CCOCC2)nc(N2CCC(C)CC2)c1[N+](=O)[O-]`, the binding response (% of control) was inconclusive: 142%. In the case of `Cc1cc[n+](-c2[nH]c(=O)sc2/C=N/N=C(\[O-])CCn2c3ccccc3c3ccccc32)cc1`, the binding response (% of control) was inconclusive: 111%. In the case of `O=C(N/C(=C\c1cccc([N+](=O)[O-])c1)C(=O)N1CCOCC1)c1ccc([N+](=O)[O-])cc1`, the binding response (% of control) was inactive: 104%. With `O=C(NCc1ccco1)C1CC(c2ccc(F)cc2)=NO1` (centres undefined) the binding response (% of control) was inconclusive: 98.1%. In the case of `O=C(NNC(=O)c1cnccc1C(F)(F)F)c1cccc(Cl)c1`, the binding response (% of control) was inconclusive: 92.4%. For `COc1ccc(NC(=O)CCC(=O)N/N=C/c2ccncc2)cc1`, the binding response (% of control) was inconclusive: 53.7%. In the case of `Cn1c(=O)c(C(=O)COc2ccc(F)cc2Cl)c(N)n(Cc2ccccc2)c1=O`, the binding response (% of control) was inactive: 103%. `COc1ccccc1N(C)S(=O)(=O)c1ccc(C(=O)NC2CCCCCC2)cc1` was tested, and the binding response (% of control) was inconclusive: 108%. In the case of `O=C(CCN1CCC(c2ccc(Cl)s2)=N1)c1ccc(Cl)s1`, the binding response (% of control) was inconclusive: 102%. For `O=C(O)c1ccc(N/N=C/c2ccc(-c3ccc(Cl)cc3Cl)o2)cc1`, the binding response (% of control) was inconclusive: 102%. In the case of `COc1ccccc1CN1CCNC(=O)C1CC(=O)N(C)Cc1ccon1` (centres undefined), the binding response (% of control) was inactive: 97.1%. With `Cc1nc(Nc2cccc(C(C)O)c2)c2nnn(Cc3ccccc3F)c2n1` (centres undefined) the binding response (% of control) was inactive: 98.3%. With `O=S(=O)(NCCc1ccccn1)c1ccc(-c2ccccn2)s1` the binding response (% of control) was inconclusive: 73.7%. `COCC(=O)OCC(=O)c1cc(C)n(-c2ccc(Br)cc2)c1C` was tested, and the binding response (% of control) was inconclusive: 91.3%. `COc1ccc(CCN2C(=S)N(c3ccc(Cl)cc3)C(=O)C2CC(N)=O)cc1OC` (centres undefined) was tested, and the binding response (% of control) was inconclusive: 73%. With `Cn1cnnc1SCC(=O)NNC(=O)c1ccc(Cl)cc1` the binding response (% of control) was inactive: 110%. In the case of `CC(/C=N/NC(=O)c1cnccn1)=C\c1ccco1`, the binding response (% of control) was inconclusive: -759%. With `CC(C)c1nnc(NC(=O)CCC(=O)Nc2ccc3cn[nH]c3c2)s1` the binding response (% of control) was inconclusive: 49.1%. `N/C(=N/OC(=O)c1ccccc1Cl)c1ncc([N+](=O)[O-])s1` was tested, and the binding response (% of control) was inconclusive: 91.7%. In the case of `O=C(N/N=C/c1ccc2nccnc2c1)c1ccc(Br)cc1`, the binding response (% of control) was inconclusive: 74.5%. For `C=C1SC(Nc2c(C)cccc2C)=NC12CCCCC2`, the binding response (% of control) was inconclusive: 114%. In the case of `COc1ccccc1NC(=O)Nc1ccc(Br)cn1`, the binding response (% of control) was inactive: 107%. For `COc1cccc(-c2nc(N3CC(C)CC(C)C3)c3ccccc3n2)c1O` (centres undefined), the binding response (% of control) was inactive: 102%. `O=C(N/N=C/c1cc([N+](=O)[O-])ccc1Cl)c1cc(-c2ccccc2)nc2ccccc12` was tested, and the binding response (% of control) was inconclusive: 96.2%. With `N#CCSc1ncnc2ccccc12` the binding response (% of control) was inconclusive: 90.3%. In the case of `O=C(Cn1c(-c2cscn2)nc2ccccc21)Nc1ccccc1F`, the binding response (% of control) was inactive: 112%. With `COc1cc(NC(=O)c2nccnc2N)cc(C(=O)Nc2cccc(C(F)(F)F)c2)c1` the binding response (% of control) was inconclusive: 104%. In the case of `CCOC(=O)C1=C(c2ccccc2)O/C(=C(/C#N)C(F)(F)F)S1`, the binding response (% of control) was inactive: 136%. `O=C1CCCCCN1CP(=O)(O)CN1CCCCCC1=O` was tested, and the binding response (% of control) was inconclusive: 94.6%. For `CCOC(=O)C1(CCc2ccccc2)CCN(C(=O)c2cnc(C)cn2)CC1`, the binding response (% of control) was inactive: 102%. With `Cc1c(Cl)c([N+](=O)[O-])nn1CCCC(=O)O` the binding response (% of control) was inconclusive: 92.7%. In the case of `COc1cc(NC(=O)c2ccc(Cl)cc2)c(OC)cc1NC(=O)CN1CCCCC1`, the binding response (% of control) was inconclusive: 90%. In the case of `O=[N+]([O-])c1cccnc1SCc1c(F)cccc1Cl`, the binding response (% of control) was inconclusive: 78.8%. For `Cc1cc(C)c(-n2[nH]nnc2=S)c(C)c1`, the binding response (% of control) was inconclusive: 70.9%. With `Cc1ccc(C)c2sc(NC(=O)CN3C(=O)CCC3=O)nc12` the binding response (% of control) was inconclusive: 12.1%. In the case of `N#Cc1ccsc1NC(=O)COC(=O)c1cc(Br)ccc1O`, the binding response (% of control) was inconclusive: 142%. In the case of `COC(C[C@@H](O)C[C@@H](O)COCc1ccccc1)OC`, the binding response (% of control) was inconclusive: 86.8%. `O=C(CSc1ccccc1)NCCCc1ccccc1` was tested, and the binding response (% of control) was inactive: 94.5%. For `COc1cc(/C=N/NC(=O)c2ccc3nc[nH]c3c2)cc(OC)c1OC`, the binding response (% of control) was inconclusive: -45.5%. `Clc1ccccc1CN1CCN(/N=C/C=C/c2ccco2)CC1` was tested, and the binding response (% of control) was inconclusive: 107%. `COc1ccc(OC)c(/C=N/NC(=O)c2ccc(=O)[nH]n2)c1` was tested, and the binding response (% of control) was inconclusive: 77%. In the case of `Cc1ccc(CN(C)C(=O)c2ccc3c(c2)NC(=O)CS3)o1`, the binding response (% of control) was inconclusive: 86.6%. `Cc1c(NC(=O)C(=O)N/N=C/c2cccs2)c(=O)n(-c2ccccc2)n1C` was tested, and the binding response (% of control) was inconclusive: 52.5%. In the case of `O/N=C/c1nc2cc(Cl)ccc2o1`, the binding response (% of control) was inconclusive: 98%. In the case of `CCCC12CN3CC(C)(CN(C1)C3c1ccc([N+](=O)[O-])o1)C2=O` (centres undefined), the binding response (% of control) was inconclusive: 135%. `Nc1ccc2c(c1)nnn2-c1ccccc1` was tested, and the binding response (% of control) was inconclusive: 89.5%. `O=C(Oc1c(CN2CCOCC2)cc(Cl)c2cccnc12)c1cccs1` was tested, and the binding response (% of control) was inconclusive: 108%. In the case of `CCOC(=O)c1cnc2c(c(C)nn2C)c1Oc1ccccc1F`, the binding response (% of control) was inconclusive: 152%. `O=C(Oc1ccccc1)c1cccnc1Oc1ccccc1` was tested, and the binding response (% of control) was inconclusive: 97.8%. In the case of `Cc1ccc(NC(=S)NC(=O)c2ccc(F)cc2)cc1S(=O)(=O)Nc1cccc(Cl)c1`, the binding response (% of control) was inconclusive: 97.9%. `CCCCCn1c(CN(C)Cc2ccccc2)nc2c1c(=O)n(C)c(=O)n2C` was tested, and the binding response (% of control) was inactive: 110%. In the case of `CC(C)CC1NC(=O)N(CC(=O)NC2CCCc3ccccc32)C1=O` (centres undefined), the binding response (% of control) was inconclusive: 99.5%. `COc1ccc(OCC(O)Cn2c(N)nc3c2c(=O)[nH]c(=O)n3C)cc1` (centres undefined) was tested, and the binding response (% of control) was inconclusive: 106%. For `Cc1cccc(N2CCN(Cc3nc(C4CC4)no3)CC2)n1`, the binding response (% of control) was inconclusive: 94.5%. For `CCCCC1=CC2=CC(=O)C(C)(OC(=O)C3CCCC3)C(=O)C2=CO1` (centres undefined), the binding response (% of control) was inconclusive: 102%. For `COc1cccc(NC2=Nc3cccc4cccc2c34)c1`, the binding response (% of control) was inactive: 103%. With `Cc1ccc(-c2csc3nc4ccc(C(=O)NCCO)cc4c(=O)n23)cc1` the binding response (% of control) was inconclusive: 112%. With `CC/C=C/C(=O)N1CC2(CC(c3cccc(NC(=O)CCCCC)c3)=NO2)C[C@H]1C(N)=O` (some centres undefined) the binding response (% of control) was inconclusive: 96%. In the case of `COC(=O)c1cc(N=C(N)N=C(N)N)cc(C(=O)OC)c1`, the binding response (% of control) was inconclusive: 233%. With `COc1ccccc1Oc1ccc(N/C=C/C(=O)c2ccco2)cc1` the binding response (% of control) was inconclusive: 77.2%. With `COc1ccccc1CNC(=O)c1ccc(N2CCOCC2)c([N+](=O)[O-])c1` the binding response (% of control) was inactive: 101%. In the case of `CCOc1ccc(-n2c(SCC(N)=O)nnc2-c2cccnc2)cc1`, the binding response (% of control) was inconclusive: 84.3%. `O=C(Cn1nnc2ccccc21)OCC(=O)c1ccc(Cl)cc1` was tested, and the binding response (% of control) was inconclusive: 120%. With `Cc1c(Cl)cccc1NC(=S)N1CCN(Cc2ccccc2)CC1` the binding response (% of control) was inactive: 110%. `NCCCC[C@H]1CNC(=O)C(=O)N1CCCCC1CCCCC1` was tested, and the binding response (% of control) was inconclusive: 42.1%. `Cc1cccc2cc3c(N)c(C(=O)N4CCc5ccccc54)sc3nc12` was tested, and the binding response (% of control) was inactive: 104%. `O=[N+]([O-])c1cccc(-c2ccn[nH]2)c1` was tested, and the binding response (% of control) was inconclusive: 111%. In the case of `CC1CCCC(C)N1c1nnc(N)s1` (centres undefined), the binding response (% of control) was inactive: 54.9%. `COc1c(C)cc(C(=O)C2CCCN(C(=O)CCc3scnc3C)C2)cc1C` (centres undefined) was tested, and the binding response (% of control) was inactive: 101%. With `COC(=O)c1cc(C)nc(Sc2ccccc2N)n1` the binding response (% of control) was inconclusive: 10.9%. `CCc1cccc(CC)c1NC(=S)NCC(c1cccnc1)N1CCOCC1` (centres undefined) was tested, and the binding response (% of control) was inactive: 98.2%. In the case of `O=C(Nc1cccnc1)c1ccc2c(c1)C(=O)N(CC1CCCO1)C2=O` (centres undefined), the binding response (% of control) was inactive: 91.1%. In the case of `CC(=O)NS(=O)(=O)c1ccc(NS(=O)(=O)c2ccccc2[N+](=O)[O-])cc1`, the binding response (% of control) was inconclusive: 130%. For `CCCCC(=O)Nc1cc(NC(=O)CC)ccc1Cl`, the binding response (% of control) was inactive: 99%. `Cc1nc(-c2ccc(-c3ccon3)s2)no1` was tested, and the binding response (% of control) was inconclusive: 97.9%. In the case of `CC(=O)Nc1ccc(S(=O)(=O)N2CCN(CC(=O)N3CCOCC3)CC2)cc1`, the binding response (% of control) was inconclusive: 99.9%. In the case of `CCOC(=O)c1c(C)oc(NC(=O)CCl)c1C(=O)OCC`, the binding response (% of control) was inactive: 91.6%. With `COC(=O)c1ccc([N+](=O)[O-])cc1N1C(=O)C2C3CCC(C3)C2C1=O` (centres undefined) the binding response (% of control) was inactive: 97.5%. With `C/C(=N\Nc1nc(-c2ccccn2)nc2ccccc12)c1ccc(F)cc1` the binding response (% of control) was inconclusive: 94.2%. `O=S(=O)(c1ccc(F)cc1)N1CCN(Cc2ccccn2)CC1` was tested, and the binding response (% of control) was inactive: 105%. In the case of `CCC(C)NC(=S)Nc1ccc(F)cc1` (centres undefined), the binding response (% of control) was inconclusive: 114%. With `C/C(=N/NC(=O)CNc1ccc(Cl)cc1C)c1ccc(C)cc1` the binding response (% of control) was inactive: 98.8%. `CC(=O)c1ccc(OCC(C)Oc2ccc(C#N)cc2)cc1` (centres undefined) was tested, and the binding response (% of control) was inconclusive: 218%. For `COc1ccc(-c2c[n+](CC(=O)N3c4ccccc4Sc4ccccc43)c3n2CCC3)cc1`, the binding response (% of control) was inconclusive: 105%. In the case of `C=CCNC(=S)N/N=C(\C)c1cccc(NC(C)=O)c1`, the binding response (% of control) was inconclusive: 100%. With `CC1CN(C(=O)COC(=O)c2ccc(Cl)c(S(=O)(=O)N3CCCCC3)c2)CC(C)O1` (centres undefined) the binding response (% of control) was inconclusive: 94.6%. In the case of `O=C(Nc1ccccc1)Nc1cc([N+](=O)[O-])ccc1F`, the binding response (% of control) was inactive: 104%. `CS(=O)(=O)Cc1cc(N2CCCC2)nc(-c2ccccc2)n1` was tested, and the binding response (% of control) was inconclusive: 109%. With `O=C1CCC(=O)N1CC(O)COc1ccccc1` (centres undefined) the binding response (% of control) was inconclusive: 105%. For `N/C(=N\O)c1ccccc1-n1cccc1`, the binding response (% of control) was inconclusive: 74.9%. In the case of `Cc1ccc(SCC(=O)NC(=O)NC(C)C)c(C)c1`, the binding response (% of control) was inconclusive: 87.3%. In the case of `CCOc1ccc(NC(=O)CC2C(=O)N(c3ccccc3)C(=O)N2Cc2ccccn2)cc1` (centres undefined), the binding response (% of control) was inactive: 125%. `O=C(COc1ccccc1)NNC1=NS(=O)(=O)c2ccccc21` was tested, and the binding response (% of control) was inconclusive: 97.3%.
